Assay results taken from article PMC7819943, “Rice protein-binding microarrays: a tool to detect cis-acting elements near promoter regions in rice”.
The list shows a part of the results.

Amino acid sequences for entries named in this document (tags omitted).
UniProt Q0JBA9, entry or part of it: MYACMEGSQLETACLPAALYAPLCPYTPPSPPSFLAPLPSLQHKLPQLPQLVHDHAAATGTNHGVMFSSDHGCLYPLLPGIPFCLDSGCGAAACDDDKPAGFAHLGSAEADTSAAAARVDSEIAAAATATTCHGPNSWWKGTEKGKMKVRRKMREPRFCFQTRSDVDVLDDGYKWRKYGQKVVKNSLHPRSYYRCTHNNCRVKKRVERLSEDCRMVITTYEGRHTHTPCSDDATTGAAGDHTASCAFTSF

Biological target: OsWRKY34 (Oryza sativa, UniProt Q0JBA9 1-250)
Assay: protein-binding microarray (RPBM); PBS, 2% BSA, 51.3 ng/ul salmon testes DNA, 50 uM zinc acetate, 200 nM TF, 25 C, 1 h; high values mean tight binding
Details: protein: recombinant; tags: N-terminal polyhistidine and DsRed monomer fusion (pET32a); label: CyDye5-dUTP incorporated in the synthesized complementary strand; 3' TTTTT single-stranded linker to array surface; dsDNA, one strand shown
Outline: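 The binding signal is fluorescence intensity per feature, in arbitrary units, read on an Axon 4000B scanner. Polyhistidine- and DsRed-tagged transcription factors (N-terminal fusions) from E. coli BL21-CodonPlus were purified on Ni–NTA and applied at 200 nM for 1 h at 25 °C to a double-stranded, BSA-blocked custom Agilent array in buffer with 50 µM zinc acetate.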

Sequence | binding signal
CCTCATCCGCGCCGCGCTCTCGCCCGCAATCGAGGCCGCCCGGAGTCACCTAGTGCAG | 8100 fluorescence intensity (a.u.)
TGGCTCTGCCACTACCTACTCCTTGACAAGTTTGTCCTCACGGAGTCACCTAGTGCAG | 8090 fluorescence intensity (a.u.)
TGTTAAAGTTAATTAAGTTCATCCACAGTTTTTTTGACTTCGGAGTCACCTAGTGCAG | 8220 fluorescence intensity (a.u.)
CCAAGAGCCGCCACTTCCGCTTCCGCCTCTGCCTCGTCCACGGAGTCACCTAGTGCAG | 15000 fluorescence intensity (a.u.)
TTTGTTTGTGTTGAAAATATTTTTATGTTATATATATATACGGAGTCACCTAGTGCAG | 8490 fluorescence intensity (a.u.)
ACACTTTCGCCTTTCTGACTTACACGCGCGTATATATACACGGAGTCACCTAGTGCAG | 8080 fluorescence intensity (a.u.)
TTCTCCCTTGAACATAGTCCGTTGCTGAACCTCACGTTGACGGAGTCACCTAGTGCAG | 8120 fluorescence intensity (a.u.)
GATGGACTGATGGTGAATTGGTGATCGGGTTGCTTGCTGGCGGAGTCACCTAGTGCAG | 8860 fluorescence intensity (a.u.)
TGGGGTTGGGTGGTGGTGGTGCGCACACAGCTAGCGAGGGCGGAGTCACCTAGTGCAG | 8760 fluorescence intensity (a.u.)
TCTATATTCTACTCAATGCTTGGTTCTAAATTGGCCTCAACGGAGTCACCTAGTGCAG | 8320 fluorescence intensity (a.u.)
ATATAAGGGATTTTGAGTTTTTGTTTGCAACGTTTGACCGCGGAGTCACCTAGTGCAG | 11200 fluorescence intensity (a.u.)
CCTCCTTGAGTTTAGTCACGATCCCCACCGTTGACCGAAGCGGAGTCACCTAGTGCAG | 15600 fluorescence intensity (a.u.)
TGATTTTCTTTCTTTTACAATCAACTGATTTTCTTTCTTTCGGAGTCACCTAGTGCAG | 11200 fluorescence intensity (a.u.)
AATTAGTTCCTGGACTTTGTGTATTACTAGTACTACTCCACGGAGTCACCTAGTGCAG | 8570 fluorescence intensity (a.u.)
TGAATTGGTTAGTCATATTTTCATTTGGCCAACCTCTCCACGGAGTCACCTAGTGCAG | 8680 fluorescence intensity (a.u.)
TATATATATATATATATATATATATATATATATAAGCGTCCGGAGTCACCTAGTGCAG | 11300 fluorescence intensity (a.u.)
GCCTTGACCTCCTCGTACGCCGCGCTCCGCTTCATCCTGCCGGAGTCACCTAGTGCAG | 8240 fluorescence intensity (a.u.)
CGAATTCTCCTCTCAATTCAACCTGCCTCGATCTCGCTCTCGGAGTCACCTAGTGCAG | 9830 fluorescence intensity (a.u.)
TTAGGGAGCGTTTTTTCTTGCTTAATTCGCAGTTAATCTTCGGAGTCACCTAGTGCAG | 9870 fluorescence intensity (a.u.)
TGGTTCATGGCCACACCACACTTTTGACTGCCACAGTGTGCGGAGTCACCTAGTGCAG | 8420 fluorescence intensity (a.u.)
TTTGTCAGTCTGTCACTTACAAACTGCGTTTGAATGTTTCCGGAGTCACCTAGTGCAG | 8960 fluorescence intensity (a.u.)
GACTTTAGTCAAAGTCATGTTGTTTCAAGTTTGACTAATTCGGAGTCACCTAGTGCAG | 18800 fluorescence intensity (a.u.)
ACGCCGCACGCTGCTCTGCAAACGCCAACTTTCCTCTCTCCGGAGTCACCTAGTGCAG | 8280 fluorescence intensity (a.u.)
ACCACCAACCTGTCTGTCTCGTACTCTCGCTTCCGCTTCGCGGAGTCACCTAGTGCAG | 13200 fluorescence intensity (a.u.)
TTGACAGCATCACCATATAATATTTTTGCATTAATAACTTCGGAGTCACCTAGTGCAG | 10200 fluorescence intensity (a.u.)
GGGTTTTTATATATAGTTGGCATTTGCAAATGTTGAAATACGGAGTCACCTAGTGCAG | 8670 fluorescence intensity (a.u.)
CAGCACAACCTTGTCGTCCTCGATCGCATCGCTCGCATCACGGAGTCACCTAGTGCAG | 8950 fluorescence intensity (a.u.)

Sequence | binding signal
TCACTTTTCATGTACAAAACATGTTGATATTGTGGTTGGTCGGAGTCACCTAGTGCAG | 8200 fluorescence intensity (a.u.)
ACCTTTGACAGCTCGAGCTCATGGCGGCTGCAGCCCTGCACGGAGTCACCTAGTGCAG | 8030 fluorescence intensity (a.u.)
TCTGATACTCCTTTTCACCGTGCCTTTTCAACACAACTTCCGGAGTCACCTAGTGCAG | 11500 fluorescence intensity (a.u.)
GGTAGTTCCCTGGCCTTGACGATCAATTGTTCATCACCATCGGAGTCACCTAGTGCAG | 8440 fluorescence intensity (a.u.)
TCTTATTTATGTGCATCCCTCGCTATGACTAATCTTGTCTCGGAGTCACCTAGTGCAG | 8500 fluorescence intensity (a.u.)
ATTTCTATTTCTACAAATATGACTAGCTAGCGTTTATATACGGAGTCACCTAGTGCAG | 8300 fluorescence intensity (a.u.)
CGAGTCTAGTATCAATTGGATATCTGGTATTTTTTTTATTCGGAGTCACCTAGTGCAG | 8280 fluorescence intensity (a.u.)
ACTTTTGGTGGACCTTGGTTGTTTGGTCTGTTTCTCTCAGCGGAGTCACCTAGTGCAG | 8680 fluorescence intensity (a.u.)
GGAGTCCGTACTATCTGTAGCCCACTGCTCTTCTCTCCCTCGGAGTCACCTAGTGCAG | 8760 fluorescence intensity (a.u.)
CGATATCTACCCATTCTCTACGCAGAATTTGCGATCCGCCCGGAGTCACCTAGTGCAG | 8270 fluorescence intensity (a.u.)
TTTCTCACATGTTTAACCATTCGTCTTATTCAAAAAATTTCGGAGTCACCTAGTGCAG | 8100 fluorescence intensity (a.u.)
CAATGAGGTGCTTTGAAATCATTTCGCTTTCACTACTTTACGGAGTCACCTAGTGCAG | 8310 fluorescence intensity (a.u.)
TGCCCAGTGTCGCCATTGCTATGCCTTGCGAGCATTCCTCCGGAGTCACCTAGTGCAG | 9270 fluorescence intensity (a.u.)
AACACCTCGAAATCAATCGGCCGGTCAACCAAACTACCCTCGGAGTCACCTAGTGCAG | 8210 fluorescence intensity (a.u.)
GATTCGTCTCGTAATTTACATGTAAATTGTGTAATGTTTTCGGAGTCACCTAGTGCAG | 8330 fluorescence intensity (a.u.)
CCTCACCCTATGCTCCTGTGTTTTGTAGTCTTTCGTAACACGGAGTCACCTAGTGCAG | 8220 fluorescence intensity (a.u.)
AAATCTCTAATTCATCCATGTTGATCCATATATTTTTCTCCGGAGTCACCTAGTGCAG | 9770 fluorescence intensity (a.u.)
GGGACGGAGGAGGGGCGATGACACGGTACGGGAGATAGTGCGGAGTCACCTAGTGCAG | 8960 fluorescence intensity (a.u.)
TTAACTGCAACCATAAGTTTCTGCGCCTAACTTTGATCGTCGGAGTCACCTAGTGCAG | 8850 fluorescence intensity (a.u.)
ATCGTAATGCCACTGAATTCCAGCTCTTTGACCGTACGGGCGGAGTCACCTAGTGCAG | 10100 fluorescence intensity (a.u.)
CCAATCCTAGTTTCTGTTCTCTTATTCCCAGTCCCCTGCTCGGAGTCACCTAGTGCAG | 8090 fluorescence intensity (a.u.)
GTCCTTTAATTTTCTTTTCTTTTTTTTTTCGAACGCGCAACGGAGTCACCTAGTGCAG | 8220 fluorescence intensity (a.u.)
CCAGCCCATACTCACGCTCCCGGCCGGCCCATCCATGGCCCGGAGTCACCTAGTGCAG | 8340 fluorescence intensity (a.u.)
AATACTAAATAAGTATTTGTTTGTTTTTTTTAAGGAGGGGCGGAGTCACCTAGTGCAG | 9580 fluorescence intensity (a.u.)
CGCCTGACATCCCGTTGTATTTCTTTCATATAACCGCTCGCGGAGTCACCTAGTGCAG | 9400 fluorescence intensity (a.u.)
TACACACCATCATCTTTTTTTCCCCTTTTGTTTCATCTCCCGGAGTCACCTAGTGCAG | 9900 fluorescence intensity (a.u.)
GGACTCTTTTCATTCATTCCTTCACTCCATAGGGGTAGGACGGAGTCACCTAGTGCAG | 12100 fluorescence intensity (a.u.)

A portion of the results above:
Sequence | binding signal
GATGGACTGATGGTGAATTGGTGATCGGGTTGCTTGCTGGCGGAGTCACCTAGTGCAG | 8860 fluorescence intensity (a.u.)
TGGGGTTGGGTGGTGGTGGTGCGCACACAGCTAGCGAGGGCGGAGTCACCTAGTGCAG | 8760 fluorescence intensity (a.u.)
TCTATATTCTACTCAATGCTTGGTTCTAAATTGGCCTCAACGGAGTCACCTAGTGCAG | 8320 fluorescence intensity (a.u.)
ATATAAGGGATTTTGAGTTTTTGTTTGCAACGTTTGACCGCGGAGTCACCTAGTGCAG | 11200 fluorescence intensity (a.u.)
